Assay results as given in US8895695B2 (priority 2003, dated 2014).

Test: general procedure: Fmoc solid-phase peptide synthesis; Fmoc-ProO-chlorotritylresin, Fmoc-DProO-chlorotritylresin, Fmoc-S-(4-S-Alloc-amino)-ProO-chlorotritylresin
Settings: whole synthesis, scale of the general procedure 60 mg resin per vessel

Row | Substance | final purity (method not given) | final purity (method not given) (run 1)
1 | Phe-Arg-Cit-Cys-Arg-Gly-^DPro-Arg-Arg-Trp-Cys-Tyr-Cit-Lys-^DPro^LPro | 95% | 
2 | Tyr-Arg-Cit-Cys-Arg-Gly-^DPro-Arg-Arg-2-Nal-Cys-Tyr-Gln-Lys-^DPro^LPro [115] | 95% | 
3 | Tyr-Arg-Cit-Phe-Arg-Phe-^DPro-Arg-Arg-2-Nal-Phe-Tyr-Cit-Lys-^DPro^LPro | 100% | 
4 | Tyr-Arg-Cit-Cys-Arg-Gly-^DPro-Arg-Arg-Trp-Cys-Tyr-Cit-Lys-^DProA8″-42 | 68% | 
5 | Tyr-Arg-Thr-Cys-Arg-Gly-^DPro-Dab-Arg-Trp-Cys-Tyr-Gln-Lys-^DPro^LPro | 95% | 
6 | Tyr-Arg-Cit-Cys-Arg-Gly-^DPro-Trp-Arg-2-Nal-Cys-Tyr-Gln-Lys-^DPro^LPro | 95% | 
7 | Tyr-Arg-Asp-Cys-Arg-Gly-^DPro-Arg-Arg-2-Nal-Cys-Tyr-Gln-Lys-^DPro^LPro | 95% | 
8 | Tyr-Arg-Cit-t-BuG-Arg-Pro-Val-Arg-Arg-2-Nal-t-BuG-Tyr-Cit-Lys-^DPro^LPro | 98% | 
9 | Tyr-Arg-Cit-Cys-Arg-Gly-^DPro-Cit-Arg-Trp-Cys-Tyr-Cit-Lys-^DPro^LPro | 95% | 
10 | Gly-Arg-Cit-Cys-Arg-Gly-^DPro-Arg-Arg-2-Nal-Cys-Tyr-Cit-Lys-^DPro^LPro | 95% | 
11 | Tyr-Arg-Cit-Cys-Arg-Gly-^DPro-Arg-Arg-2-Nal-Cys-Tyr-Gln-Ser-^DPro^LPro | 95% | 
12 | Tyr-Arg-Tyr-Cys-Arg-Gly-^DPro-Arg-Arg-2-Nal-Cys-Tyr-Gln-Lys-^DPro^LPro | 95% | 
13 | Tyr-Arg-Cit-Phe-Arg-Gly-^DPro-Arg-Arg-2-Nal-Phe-Tyr-Cit-Lys-^DPro^LPro | 100% | 
14 | Tyr-Arg-Ala-Cys-Arg-Gly-^DPro-Arg-Arg-2-Nal-Cys-Tyr-Gln-Lys-^DPro^LPro | 95% | 
15 | Tyr-Arg-Thr-Cys-Arg-Gly-^DPro-Arg-Arg-Tyr-Cys-Tyr-Gln-Lys-^DPro^LPro | 95% | 
16 | Tyr-His-Thr-Cys-Arg-Gly-^DPro-Arg-His-Trp-Cys-Tyr-Gln-Lys-^DPro^LPro | 95% | 
17 | Tyr-Arg-Tyr-Cys-Arg-Gly-^DPro-Arg-Arg-Tyr-Cys-Tyr-Gln-Lys-^DPro^LPro | 91% | 
18 | Tyr-Arg-Cit-Val-Arg-Gly-^DPro-Arg-Arg-2-Nal-Val-Tyr-Cit-Lys-^DPro^LPro | 100% | 
19 | Tyr-Arg-Cit-Cys-Arg-Gly-^DPro-Arg-Arg-2-Nal-Cys-Tyr-Thr-Lys-^DPro^LPro |  | 90%
20 | Tyr-Arg-Cit-Val-Arg-Phe-Pro-Arg-Arg-2-Nal-Phe-Tyr-Cit-Lys-^DPro^LPro | 100% | 
21 | Tyr-Arg-Cit-Cys-Arg-Gly-^DPro-Arg-Orn-Trp-Cys-Tyr-Cit-Lys-^DPro^LPro | 90% | 
22 | Tyr-Arg-Cit-Cys-Arg-Gly-^DPro-Arg-Arg-2-Nal-Cys-Tyr-Leu-Lys-^DPro^LPro | 95% | 
23 | Tyr-Arg-Cit-Val-Arg-Gly-Gly-Arg-Arg-2-Nal-Val-Tyr-Cit-Lys-^DPro^LPro | 95% | 
24 | Tyr-Arg-Cit-Cys-Arg-Gly-^DPro-(Im)G-Arg-2-Nal-Cys-Tyr-Cit-Lys-^DPro^LPro | 95% | 

Row | Substance | final purity (method not given) | final purity (method not given) (run 1)
25 | Pip-Arg-Tyr-Cys-Tyr-Gln-Lys-^DPro-Pro-Tyr-Arg-Cit-Cys-Arg-Gly^DPro | 95% | 
26 | Tyr-Arg-Cit-Cys-Arg-Gly-^DPro-Arg-Arg-2-Nal-Cys-Tyr-Gln-Asp-^DPro^LPro | 95% | 
27 | Tyr-Arg-Pro-Cys-Arg-Gly-^DPro-Arg-Arg-2-Nal-Cys-Tyr-Gln-Lys-^DPro^LPro | 95% | 
28 | Tyr-Arg-Cit-Tyr-Arg-Val-Gly-Arg-Arg-2-Nal-Tyr-Tyr-Cit-Lys-^DPro^LPro | 99% | 
29 | Tyr-Lys-Cit-Cys-Arg-Gly-^DPro-Arg-Arg-Trp-Cys-Tyr-Cit-Lys-^DPro^LPro | 95% | 
30 | Tyr-Arg-Cit-Val-Arg-Val-^DPro-Arg-Arg-2-Nal-Val-Tyr-Cit-Lys-^DPro^LPro | 100% | 
31 | Tyr-Arg-Cit-Val-Arg-Cit-Pro-Arg-Arg-2-Nal-Phe-Tyr-Cit-Lys-^DPro^LPro | 100% | 
32 | Tyr-Arg-Cit-Cys-Arg-Gly-Gly-Arg-Arg-2-Nal-Cys-Tyr-Cit-Lys-^DPro^LPro | 100% | 
33 | Tyr-Arg-Cit-Phe-Arg-Val-Pro-Arg-Arg-2-Nal-Val-Tyr-Cit-Lys-^DPro^LPro | 100% | 
34 | Tyr-Arg-Cit-Phe-Arg-Val-Gly-Arg-Arg-2-Nal-Phe-Tyr-Cit-Lys-^DPro^LPro | 92% | 
35 | Tyr-Arg-Arg-Cys-Arg-Gly-^DPro-Arg-Arg-2-Nal-Cys-Tyr-Gln-Lys-^DPro^LPro | 95% | 
36 | Tyr-Arg-Cit-Cys-Arg-Gly-^DPro-Arg-Arg-2-Nal-Cys-Tyr-Tyr-Lys-^DPro^LPro | 95% | 
37 | Tyr-Arg-Ile-Cys-Arg-Gly-^DPro-Arg-Arg-2-Nal-Cys-Tyr-Gln-Lys-^DPro^LPro | 95% | 
38 | Tyr-Arg-Cit-Cys-Dab-Gly-^DPro-Arg-Arg-Trp-Cys-Tyr-Gln-Lys-^DPro^LPro | 95% | 
39 | Ser-Arg-Cit-Cys-Arg-Gly-^DPro-Arg-Arg-2-Nal-Cys-Tyr-Gln-Lys-^DPro^LPro | 95% | 
40 | Tyr-Arg-Cit-Cys-Arg-Gly-^DPro-Arg-Arg-2-Nal-Cys-Tyr-Cit-NMeK-^DPro^LPro | 85% | 
41 | Tyr-Arg-Cit-Val-Arg-Val-Gly-Arg-Arg-2-Nal-Val-Tyr-Cit-Lys-^DPro^LPro | 100% | 
42 | Tyr-Arg-Lys-Cys-Arg-Gly-^DPro-Arg-Arg-2-Nal-Cys-Tyr-Gln-Lys-^DPro^LPro | 95% | 
43 | Tyr-Arg-Cit-Val-Arg-Cit-^DPro-Arg-Arg-2-Nal-Val-Tyr-Cit-Lys-^DPro^LPro | 100% | 
44 | Tyr-Arg-Cit-Phe-Arg-Cit-Pro-Arg-Arg-2-Nal-Phe-Tyr-Cit-Lys-^DPro^LPro | 100% | 
45 | Tyr-Arg-Cit-Val-Arg-Pro-Val-Arg-Arg-2-Nal-Val-Tyr-Cit-Lys-^DPro^LPro | 93% | 
46 | Tyr-Arg-Cit-Cys-Arg-Gly-^DPro-Arg-(Pip)G-2-Nal-Cys-Tyr-Cit-Lys-^DPro^LPro | 95% | 
47 | Tyr-Arg-Cit-Cys-Arg-Gly-^DPro-Arg-Arg-2-Nal-Cys-Tyr-Gln-Glu-^DPro^LPro | 95% | 
48 | Tyr-Arg-Cit-Cys-Arg-Gly-^DPro-Arg-Arg-Tyr-Cys-Cit-Tyr-Lys-^DPro^LPro | 83% | 

Row | Substance | final purity (method not given) | final purity (method not given) (run 1)
49 | Tyr-Arg-Cit-Cys-Arg-Gly-^DPro-4F-Phe-Arg-2-Nal-Cys-Tyr-Gln-Lys-^DPro^LPro | 95% | 
50 | Tyr-His-Cit-Cys-Arg-Gly-^DPro-Arg-Arg-Trp-Cys-Tyr-Cit-Lys-^DPro^LPro | 95% | 
51 | Tyr-Arg-Cit-Cys-Arg-Gly-^DPro-4F-Phe-Arg-Trp-Cys-Tyr-Cit-Lys-^DPro^LPro | 95% | 
52 | Val-Arg-Cit-Cys-Arg-Gly-^DPro-Arg-Arg-2-Nal-Cys-Tyr-Gln-Lys-^DPro^LPro | 95% | 
53 | Tyr-Arg-Cit-Cys-Arg-Gly-^DPro-Arg-Arg-2-Nal-Cys-Tyr-Ser-Lys-^DPro^LPro | 95% | 
54 | Tyr-Arg-Cit-Phe-Arg-Cit-^DPro-Arg-Arg-2-Nal-Phe-Tyr-Cit-Lys-^DPro^LPro | 100% | 
55 | Tyr-Arg-Cit-Cys-Arg-Gly-^DPro-Arg-Arg-Trp-Cys-Tyr-Cit-Gln-^DPro^LPro | 95% | 
56 | Tyr-Arg-Cit-Cys-Arg-Val-Gly-Arg-Arg-2-Nal-Cys-Tyr-Cit-Lys-^DPro^LPro | 100% | 
57 | Tyr-Arg-Met-Cys-Arg-Gly-^DPro-Arg-Arg-2-Nal-Cys-Tyr-Gln-Lys-^DPro^LPro | 95% | 
58 | Tyr-Arg-Cit-Phe-Arg-Phe-Pro-Arg-Arg-2-Nal-Val-Tyr-Cit-Lys-^DPro^LPro | 100% | 
59 | Tyr-Arg-Cit-Cys-(EA)G-Gly-^DPro-Arg-Arg-2-Nal-Cys-Tyr-Cit-Lys-^DPro^LPro | 76% | 
60 | Tyr-Arg-Cit-Cys-Arg-Gly-^DPro-Tyr-Arg-2-Nal-Cys-Tyr-Gln-Lys-^DPro^LPro | 95% | 
61 | Tyr-Arg-Cit-Phe-Arg-Cit-^DPro-Arg-Arg-2-Nal-Val-Tyr-Cit-Lys-^DPro^LPro | 100% | 
62 | Tyr-Arg-Cit-Cys-Arg-Gly-^DPro-Arg-Arg-2-Nal-Cys-Tyr-Ala-Lys-^DPro^LPro | 95% | 
63 | Tyr-Arg-Cit-Phe-Arg-Phe-^DPro-Arg-Arg-2-Nal-Val-Tyr-Cit-Lys-^DPro^LPro | 100% | 
64 | Tyr-Arg-Cit-Cys-Arg-Gly-^DPro-Arg-Arg-2-Nal-Cys-Tyr-Met-Lys-^DPro^LPro | 95% | 
65 | Tyr-Arg-Cit-Cys-Arg-Gly-^DPro-Arg-Arg-2-Nal-Cys-Tyr-Arg-Lys-^DPro^LPro | 95% | 
66 | Arg-Arg-Cit-Cys-Arg-Gly-^DPro-Arg-Arg-2-Nal-Cys-Tyr-Gln-Lys-^DPro^LPro | 95% | 
67 | Tyr-Arg-Cit-Ser-Arg-Gly-^DPro-Arg-Arg-Trp-Asn-Tyr-Cit-Lys-^DPro^LPro | 67% | 
68 | Tyr-Arg-Cit-Cys-Arg-Gly-^DPro-Arg-Arg-Tyr-Cys-Tyr-Cit-Lys-^DPro^LPro | 95% | 
69 | Tyr-Arg-Ser-Cys-Arg-Gly-^DPro-Arg-Arg-Trp-Cys-Tyr-Cit-Asp-^DPro^LPro | 95% | 
70 | Tyr-Arg-Thr-Cys-Arg-Gly-^DPro-Arg-Arg-2-Nal-Cys-Tyr-Cit-Lys-^DPro^LPro | 98% | 
71 | Tyr-Arg-Cit-Cys-Arg-Gly-^DPro-Arg-Arg-2-Nal-Cys-Tyr-Asp-Lys-^DPro^LPro | 95% | 
